These are yes or no findings as the source states them, for the method shown. Binding seen in cells or lysates may run through a third protein. Some results given as binding are weak or reduced against the parent protein; the word gives no strength.
Target: transporter associated with antigen presentation (TAP), TAP1 subunit (human (endogenous in HeLa)) (UniProt Q03518)
Assay: co-IP; HeLa lines pre-treated with NEM (20 mM, pH 7.4), lysed in 1% digitonin, precleared, immunoprecipitated with anti-TAP1 or anti-tapasin antibodies, non-reducing 8% SDS-PAGE, immunoblot (anti-V5; ERp57)

ERp57 (from UniProt P30101 25-505)
binding: binds
